Results are given in words; binding and its absence hold for the method and conditions named. Binding seen in cells or lysates may run through a third protein. Some entries that bind do so weakly or less than the wild type.
B1: Zinc finger protein GLI-similar 2 (GLIS2) (protein, UniProt Q9BZE0 1-524)
chain: MHSLDEPLDLKLSITKLRAAREKRERTLGVVRPRALHRELGLVDDSPTPGSPGSPPSGFLLNSKFPEKVEGRFSAAPLVDLSLSPPSGLDSPNGSSSLSPERQGNGDLPPVPSASDFQPLRYLDGVPSSFQFFLPLGSGGALHLPASSFLTPPKDKCLSPDLPLPKQLVCRWAKCNQLFELLQDLVDHVNDYHVKPEKDAGYCCHWEGCARHGRGFNARYKMLIHIRTHTNEKPHRCPTCSKSFSRLENLKIHNRSHTGEKPYVCPYEGCNKRYSNSSDRFKHTRTHYVDKPYYCKMPGCHKRYTDPSSLRKHIKAHGHFVSHEQQELLQLRPPPKPPLPAPDGGPYVSGAQIIIPNPAALFGGPGLPGLPLPLAPGPLDLSALACGNGGGSGGGGGMGPGLPGPVLPLNLAKNPLLPSPFGAGGLGLPVVSLLAGAAGGKAEGEKGRGSVPTRALGMEGHKTPLERTESSCSRPSPDGLPLLPGTVLDLSTGVNSAASSPEALAPGWVVIPPGSVLLKPAVVN
B2: zinc finger and BTB domain containing 5 (ZBTB5) (protein, UniProt O15062 1-677)
chain: MDFPGHFEQIFQQLNYQRLHGQLCDCVIVVGNRHFKAHRSVLAACSTHFRALFSVAEGDQTMNMIQLDSEVVTAEAFAALIDMMYTSTLMLGESNVMDVLLAASHLHLNSVVKACKHYLTTRTLPMSPPSERVQEQSARMQRSFMLQQLGLSIVSSALNSSQNGEEQPAPMSSSMRSNLDQRTPFPMRRLHKRKQSAEERARQRLRPSIDESAISDVTPENGPSGVHSREEFFSPDSLKIVDNPKADGMTDNQEDSAIMFDQSFGTQEDAQVPSQSDNSAGNMAQLSMASRATQVETSFDQEAAPEKSSFQCENPEVGLGEKEHMRVVVKSEPLSSPEPQDEVSDVTSQAEGSESVEVEGVVVSAEKIDLSPESSDRSFSDPQSSTDRVGDIHILEVTNNLEHKSTFSISNFLNKSRGNNFTANQNNDDNIPNTTSDCRLESEAPYLLSPEAGPAGGPSSAPGSHVENPFSEPADSHFVRPMQEVMGLPCVQTSGYQGGEQFGMDFSRSGLGLHSSFSRVMIGSPRGGASNFPYYRRIAPKMPVVTSVRSSQIPENSTSSQLMMNGATSSFENGHPSQPGPPQLTRASADVLSKCKKALSEHNVLVVEGARKYACKICCKTFLTLTDCKKHIRVHTGEKPYACLKCGKRFSQSSHLYKHSKTTCLRWQSSNLPSTLL

Chains of the proteins cited; added tags and fusions are not shown.
UniProt Q04206: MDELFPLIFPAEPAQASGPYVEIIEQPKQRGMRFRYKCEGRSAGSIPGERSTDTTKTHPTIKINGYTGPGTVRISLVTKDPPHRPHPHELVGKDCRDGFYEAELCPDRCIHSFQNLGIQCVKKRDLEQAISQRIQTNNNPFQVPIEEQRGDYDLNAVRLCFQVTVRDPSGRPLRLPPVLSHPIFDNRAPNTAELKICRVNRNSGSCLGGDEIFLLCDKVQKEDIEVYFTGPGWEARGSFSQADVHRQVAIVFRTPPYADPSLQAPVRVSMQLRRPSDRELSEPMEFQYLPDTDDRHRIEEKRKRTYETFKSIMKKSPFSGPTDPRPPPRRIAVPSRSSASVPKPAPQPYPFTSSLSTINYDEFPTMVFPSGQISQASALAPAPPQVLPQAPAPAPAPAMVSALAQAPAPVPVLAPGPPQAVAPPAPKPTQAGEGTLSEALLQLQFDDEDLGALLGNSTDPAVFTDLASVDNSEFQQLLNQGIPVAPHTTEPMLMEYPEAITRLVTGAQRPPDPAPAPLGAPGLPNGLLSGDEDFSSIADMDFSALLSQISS
UniProt P19532: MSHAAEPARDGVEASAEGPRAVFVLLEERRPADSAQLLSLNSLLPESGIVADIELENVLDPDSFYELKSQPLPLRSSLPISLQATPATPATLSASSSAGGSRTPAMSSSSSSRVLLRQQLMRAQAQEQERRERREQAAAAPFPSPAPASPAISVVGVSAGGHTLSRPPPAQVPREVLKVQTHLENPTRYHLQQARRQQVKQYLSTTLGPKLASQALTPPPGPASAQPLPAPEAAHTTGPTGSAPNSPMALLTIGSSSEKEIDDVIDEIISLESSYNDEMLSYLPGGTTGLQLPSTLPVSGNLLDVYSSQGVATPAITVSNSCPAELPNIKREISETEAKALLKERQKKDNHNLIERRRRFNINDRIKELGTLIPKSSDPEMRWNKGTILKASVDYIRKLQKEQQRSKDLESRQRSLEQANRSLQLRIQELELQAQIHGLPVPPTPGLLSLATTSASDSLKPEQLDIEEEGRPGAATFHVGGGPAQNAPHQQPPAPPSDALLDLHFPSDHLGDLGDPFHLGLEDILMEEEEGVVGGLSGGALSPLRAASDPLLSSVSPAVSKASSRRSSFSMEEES

target: p65 / RELA (endogenous) (human (endogenous in HeLa)) (UniProt Q04206); assay: proximity ligation

binding, binds:
transcription factor E3 (TFE3) (from UniProt P19532 1-575)
B1
B2
